{
  "source": "patent US20230338315A1",
  "about": "“METHOD OF PRODUCING PHARMACEUTICAL COCRYSTALS FOR ADDITIVE MANUFACTURING” (BOARD OF REGENTS, THE UNIVERSITY OF TEXAS SYSTEM, priority 2020, published 2023)",
  "assay": "Dissolution test / in vitro performance testing at pH 6.8",
  "type": "physicochemical",
  "conditions": "cocrystals made by hot melt extrusion with 10% Kollidon VA64",
  "note": "The name of at least one read-out is uncertain.",
  "data": [
    {"smiles": "Cc1cccc(Nc2ccccc2C(=O)O)c1C", "note": "[Mefenamic acid]", "values": [
      {"measurement": "increase in the solubility of mefenamic acid", "result": "fourfold increase"}
    ]}
  ]
}
